According to the supplement of paper PMC6411743:
± gives the standard deviation of the averaged measurements. The entries are a selection whose mix differs from that of the whole data set.

Legend:
Test in all cases: NP40-soluble protein abundance relative to vehicle (solubility fold change) (ratio); higher = more soluble protein in presence of ATP
SEMA4D = biological target: T1, SEMA4D (UniProt Q92854)
T1 sequence (whole entry): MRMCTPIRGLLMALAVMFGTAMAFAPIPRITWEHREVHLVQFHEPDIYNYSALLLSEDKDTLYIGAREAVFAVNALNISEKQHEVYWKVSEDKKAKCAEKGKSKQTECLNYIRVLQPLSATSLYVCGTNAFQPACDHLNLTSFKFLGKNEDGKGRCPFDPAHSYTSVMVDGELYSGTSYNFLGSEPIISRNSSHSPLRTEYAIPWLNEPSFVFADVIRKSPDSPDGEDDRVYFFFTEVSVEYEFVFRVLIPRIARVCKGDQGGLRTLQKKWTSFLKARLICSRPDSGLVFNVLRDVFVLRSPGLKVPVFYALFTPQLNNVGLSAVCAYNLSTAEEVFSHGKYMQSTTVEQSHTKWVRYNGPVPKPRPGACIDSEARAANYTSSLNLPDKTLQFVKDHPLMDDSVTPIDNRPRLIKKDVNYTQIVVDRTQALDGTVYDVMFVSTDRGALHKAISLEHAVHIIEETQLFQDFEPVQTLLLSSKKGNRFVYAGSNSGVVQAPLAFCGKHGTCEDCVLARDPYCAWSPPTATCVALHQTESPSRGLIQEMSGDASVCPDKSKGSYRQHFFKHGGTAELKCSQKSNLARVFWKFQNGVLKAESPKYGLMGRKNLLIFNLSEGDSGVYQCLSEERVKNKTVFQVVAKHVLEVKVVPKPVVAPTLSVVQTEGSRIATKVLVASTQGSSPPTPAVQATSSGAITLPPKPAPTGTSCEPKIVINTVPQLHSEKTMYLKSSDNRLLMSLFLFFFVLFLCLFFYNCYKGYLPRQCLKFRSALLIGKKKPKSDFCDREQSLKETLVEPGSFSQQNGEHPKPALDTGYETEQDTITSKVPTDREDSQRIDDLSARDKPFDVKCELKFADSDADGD
Procedure, shortened: (§1)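 Crude Jurkat lysate, prepared by Dounce homogenisation, was exposed to eight concentrations from 0.1 to 10 mM for 10 min at room temperature and then 3 min at 37 °C. Solubilisation used 0.8% NP40 with benzonase for 60 min at 4 °C, followed by ultracentrifugation and TMT labelling of the supernatant for LC-MS/MS. After vsn normalisation of intensities, each value is the fold change against the detergent-processed vehicle within each replicate, across three independent experiments.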

SYMPK = biological target: T2, SYMPK (UniProt Q92797)
T2 sequence (whole entry): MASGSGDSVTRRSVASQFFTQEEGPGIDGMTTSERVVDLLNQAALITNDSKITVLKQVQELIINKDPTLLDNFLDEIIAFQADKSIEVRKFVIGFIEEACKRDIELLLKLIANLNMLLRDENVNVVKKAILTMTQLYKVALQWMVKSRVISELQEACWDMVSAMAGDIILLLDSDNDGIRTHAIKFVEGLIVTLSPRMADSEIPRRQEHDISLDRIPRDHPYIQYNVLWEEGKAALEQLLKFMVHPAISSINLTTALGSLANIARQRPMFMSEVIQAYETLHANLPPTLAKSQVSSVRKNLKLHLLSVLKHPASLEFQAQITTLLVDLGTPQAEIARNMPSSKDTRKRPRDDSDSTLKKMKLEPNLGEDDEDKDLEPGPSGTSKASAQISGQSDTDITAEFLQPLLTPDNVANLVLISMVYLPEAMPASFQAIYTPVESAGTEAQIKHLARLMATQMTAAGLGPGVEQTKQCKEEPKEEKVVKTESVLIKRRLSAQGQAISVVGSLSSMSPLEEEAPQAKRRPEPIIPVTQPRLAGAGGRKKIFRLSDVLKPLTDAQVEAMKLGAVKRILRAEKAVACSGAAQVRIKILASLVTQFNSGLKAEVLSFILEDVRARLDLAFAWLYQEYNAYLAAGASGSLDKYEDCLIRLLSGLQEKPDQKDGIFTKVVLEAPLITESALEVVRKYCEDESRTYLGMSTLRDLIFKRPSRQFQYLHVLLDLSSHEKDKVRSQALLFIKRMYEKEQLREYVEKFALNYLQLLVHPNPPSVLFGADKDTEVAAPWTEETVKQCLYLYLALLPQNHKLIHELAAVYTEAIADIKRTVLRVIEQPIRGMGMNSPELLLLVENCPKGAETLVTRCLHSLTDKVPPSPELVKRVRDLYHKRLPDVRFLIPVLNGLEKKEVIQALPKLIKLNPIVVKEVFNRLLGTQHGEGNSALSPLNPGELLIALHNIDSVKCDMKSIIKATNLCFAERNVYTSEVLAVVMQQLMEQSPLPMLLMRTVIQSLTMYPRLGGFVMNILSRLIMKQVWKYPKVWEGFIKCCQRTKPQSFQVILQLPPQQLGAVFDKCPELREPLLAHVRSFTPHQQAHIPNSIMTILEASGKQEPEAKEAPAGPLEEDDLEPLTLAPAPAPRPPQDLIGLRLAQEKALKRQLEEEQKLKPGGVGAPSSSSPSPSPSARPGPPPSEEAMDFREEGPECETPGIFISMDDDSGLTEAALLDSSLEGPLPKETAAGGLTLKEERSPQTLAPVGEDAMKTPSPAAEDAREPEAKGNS
Procedure, shortened: as §1

UBLCP1 = biological target: T3, UBLCP1 (UniProt Q8WVY7)
T3 sequence (whole entry): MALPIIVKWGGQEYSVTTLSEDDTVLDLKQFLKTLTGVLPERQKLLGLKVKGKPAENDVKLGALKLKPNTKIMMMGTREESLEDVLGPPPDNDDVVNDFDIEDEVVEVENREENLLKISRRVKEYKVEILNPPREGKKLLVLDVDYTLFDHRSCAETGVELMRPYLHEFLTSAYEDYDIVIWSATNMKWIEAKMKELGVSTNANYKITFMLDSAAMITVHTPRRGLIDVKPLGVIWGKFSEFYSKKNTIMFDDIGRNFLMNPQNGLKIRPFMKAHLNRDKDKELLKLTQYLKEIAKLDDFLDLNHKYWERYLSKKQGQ
Procedure, shortened: as §1

[1] = biological target: T4, UniProt Q8TBA6 and related entries
T4 sequence (whole entry): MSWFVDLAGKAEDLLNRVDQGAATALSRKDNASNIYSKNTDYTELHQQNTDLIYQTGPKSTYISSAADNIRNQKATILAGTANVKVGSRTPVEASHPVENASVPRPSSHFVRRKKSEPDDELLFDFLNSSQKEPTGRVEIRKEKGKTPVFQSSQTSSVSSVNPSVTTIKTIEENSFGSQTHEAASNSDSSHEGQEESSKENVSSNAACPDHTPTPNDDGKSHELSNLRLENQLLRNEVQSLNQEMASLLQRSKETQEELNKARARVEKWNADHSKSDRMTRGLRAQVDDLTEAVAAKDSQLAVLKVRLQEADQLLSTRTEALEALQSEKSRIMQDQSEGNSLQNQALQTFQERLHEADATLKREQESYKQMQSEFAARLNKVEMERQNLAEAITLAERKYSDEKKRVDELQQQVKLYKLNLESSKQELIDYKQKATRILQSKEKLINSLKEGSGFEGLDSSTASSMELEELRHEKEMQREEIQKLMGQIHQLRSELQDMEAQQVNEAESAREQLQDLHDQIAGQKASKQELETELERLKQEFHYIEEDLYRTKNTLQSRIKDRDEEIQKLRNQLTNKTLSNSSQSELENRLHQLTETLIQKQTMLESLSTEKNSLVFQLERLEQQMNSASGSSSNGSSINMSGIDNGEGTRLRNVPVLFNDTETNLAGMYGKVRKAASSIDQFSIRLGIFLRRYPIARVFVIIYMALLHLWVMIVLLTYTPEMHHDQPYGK
Procedure, shortened: as §1

UniProt Q8WWW0-2 = biological target: T5, UniProt Q8WWW0-2
T5 sequence (whole entry): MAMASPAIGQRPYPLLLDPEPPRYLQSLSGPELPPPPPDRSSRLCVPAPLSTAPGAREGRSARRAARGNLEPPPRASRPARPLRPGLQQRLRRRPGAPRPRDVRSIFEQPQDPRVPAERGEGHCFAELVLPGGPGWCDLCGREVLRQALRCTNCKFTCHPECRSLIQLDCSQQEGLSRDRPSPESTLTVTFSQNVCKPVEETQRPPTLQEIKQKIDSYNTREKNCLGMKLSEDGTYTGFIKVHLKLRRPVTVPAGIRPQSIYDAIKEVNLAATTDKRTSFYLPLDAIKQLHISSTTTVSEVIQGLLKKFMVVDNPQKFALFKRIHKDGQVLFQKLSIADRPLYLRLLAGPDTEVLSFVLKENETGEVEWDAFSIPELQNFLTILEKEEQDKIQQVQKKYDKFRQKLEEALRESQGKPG
Procedure, shortened: as §1

[2] = biological target: T6, UniProt Q8WYQ5 and related entries
T6 sequence (whole entry): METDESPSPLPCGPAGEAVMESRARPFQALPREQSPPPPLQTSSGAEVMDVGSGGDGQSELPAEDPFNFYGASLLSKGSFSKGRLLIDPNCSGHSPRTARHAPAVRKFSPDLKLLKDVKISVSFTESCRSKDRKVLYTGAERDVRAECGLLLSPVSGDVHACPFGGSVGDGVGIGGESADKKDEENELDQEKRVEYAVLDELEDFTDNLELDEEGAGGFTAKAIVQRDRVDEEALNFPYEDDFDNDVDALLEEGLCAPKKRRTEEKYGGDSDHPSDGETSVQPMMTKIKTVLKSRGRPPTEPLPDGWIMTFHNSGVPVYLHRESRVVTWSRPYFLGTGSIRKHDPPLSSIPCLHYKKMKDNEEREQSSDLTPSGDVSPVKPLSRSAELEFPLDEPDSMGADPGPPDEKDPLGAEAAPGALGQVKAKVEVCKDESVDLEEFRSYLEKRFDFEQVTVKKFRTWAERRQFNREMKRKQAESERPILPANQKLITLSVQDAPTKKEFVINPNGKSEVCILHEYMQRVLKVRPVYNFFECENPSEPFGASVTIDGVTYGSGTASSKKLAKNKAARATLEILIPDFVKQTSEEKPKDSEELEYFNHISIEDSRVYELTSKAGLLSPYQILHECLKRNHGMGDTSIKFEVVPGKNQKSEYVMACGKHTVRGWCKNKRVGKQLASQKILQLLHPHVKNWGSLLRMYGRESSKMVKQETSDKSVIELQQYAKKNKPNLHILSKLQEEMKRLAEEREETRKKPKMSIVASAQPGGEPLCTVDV
Procedure, shortened: as §1

For `Nc1ncnc2c1ncn2[C@@H]1O[C@H](COP(=O)(O)OP(=O)(O)OP(=O)(O)O)[C@@H](O)[C@H]1O` [adenosine triphosphate], the NP40-soluble protein abundance (SEMA4D; concentration: 1mM) was 0.934 ± 0.041, the NP40-soluble protein abundance (SEMA4D; concentration: 2mM) was 0.956 ± 0.025 and the NP40-soluble protein abundance (SEMA4D; concentration: 4mM) was 0.9109 ± 0.0088. For the same molecule, the NP40-soluble protein abundance (SEMA4D; concentration: 6mM) was 0.971 ± 0.03, the NP40-soluble protein abundance (SEMA4D; concentration: 8mM) was 0.904 ± 0.025 and the NP40-soluble protein abundance (SEMA4D; concentration: 10mM) was 0.886 ± 0.03. It also gave an NP40-soluble protein abundance (SYMPK; concentration: 1mM) of 1.01 ± 0.013, an NP40-soluble protein abundance (SYMPK; concentration: 2mM) of 1.02 ± 0.051 and an NP40-soluble protein abundance (SYMPK; concentration: 4mM) of 1.02 ± 0.043. The NP40-soluble protein abundance (SYMPK; concentration: 6mM) was 1.03 ± 0.051, the NP40-soluble protein abundance (SYMPK; concentration: 8mM) was 1.04 ± 0.058 and the NP40-soluble protein abundance (SYMPK; concentration: 10mM) was 1.06 ± 0.048. For the same molecule, the NP40-soluble protein abundance (UBLCP1; concentration: 1mM) was 1.03 ± 0.099, the NP40-soluble protein abundance (UBLCP1; concentration: 2mM) was 1.01 ± 0.11 and the NP40-soluble protein abundance (UBLCP1; concentration: 4mM) was 1.01 ± 0.067. The NP40-soluble protein abundance (UBLCP1; concentration: 6mM) was 0.952 ± 0.088, the NP40-soluble protein abundance (UBLCP1; concentration: 8mM) was 0.997 ± 0.048 and the NP40-soluble protein abundance (UBLCP1; concentration: 10mM) was 1.02 ± 0.095. The NP40-soluble protein abundance ([1]; concentration: 1mM) was 0.9738 ± 0.0087, the NP40-soluble protein abundance ([1]; concentration: 2mM) was 0.964 ± 0.019 and the NP40-soluble protein abundance ([1]; concentration: 4mM) was 0.953 ± 0.032. It also gave an NP40-soluble protein abundance ([1]; concentration: 6mM) of 1 ± 0.048, an NP40-soluble protein abundance ([1]; concentration: 8mM) of 0.937 ± 0.03 and an NP40-soluble protein abundance ([1]; concentration: 10mM) of 0.925 ± 0.026. The NP40-soluble protein abundance (UniProt Q8WWW0-2; concentration: 1mM) was 0.945 ± 0.025, the NP40-soluble protein abundance (UniProt Q8WWW0-2; concentration: 2mM) was 0.984 ± 0.034 and the NP40-soluble protein abundance (UniProt Q8WWW0-2; concentration: 4mM) was 0.976 ± 0.011. It also gave an NP40-soluble protein abundance (UniProt Q8WWW0-2; concentration: 6mM) of 0.944 ± 0.025, an NP40-soluble protein abundance (UniProt Q8WWW0-2; concentration: 8mM) of 0.965 ± 0.019 and an NP40-soluble protein abundance (UniProt Q8WWW0-2; concentration: 10mM) of 0.974 ± 0.018. For the same molecule, the NP40-soluble protein abundance ([2]; concentration: 1mM) was 1.17 ± 0.088, the NP40-soluble protein abundance ([2]; concentration: 2mM) was 1.25 ± 0.11 and the NP40-soluble protein abundance ([2]; concentration: 4mM) was 1.22 ± 0.072.
